Literature values, collected in patent US6852335B2, “Folic acid in solid dosage forms” (Shaklee Corporation, priority 1999, dated 2005).
At least one read-out could not be matched to a standard name with certainty.

Conditions: folate of a typical U.S. diet present as polyglutamate

Substance: polyglutamate
- bioavailability relative to crystalline folic acid: about half as bioavailable as crystalline folic acid
